# Laboratory results taken from PubChem BioAssay AID504834 (National Center for Advancing Translational Sciences (NCATS), 2011).
# Screen size: about 320,000 compounds; about 22,000 (6.9%) were called active. Inconclusive results, whose numbers are uncertain, are shown with a selection of clear calls. Calls follow the shape of the dose curve; as a rule, active = well fitted inhibition curve with a large enough effect; inconclusive = small, poorly fitted or top-dose-only effect, or another doubt; inactive = no such curve, though single readings can be large or run the other way. Potencies beside an inconclusive call are fits to weak or partial responses and may not hold up.
# Assay: Primary qHTS for delayed death inhibitors of the malarial parasite plastid, 96 hour incubation
# Conditions: P. falciparum luciferase reporter growth; series mostly up to 28.7 µM
# Summary of the method: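 Parasite growth measured via integrated firefly luciferase reporter in P. falciparum. Infected erythrocytes at 2% hematocrit, 0.05% parasitemia final were treated 96 hours at 37 C under 5% CO2, and luminescence was read.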
# Potency is read from the fitted curve at half-maximal effect.
row,Compound,Potency
1,Cc1ccc(-c2noc(CN(C(=O)C34CC5CC(CC(C5)C3)C4)C(C)C)n2)cc1,"inconclusive: 11.7 µM [inhibitor, single point]"
2,CCCCc1c(C)nc2nc(SCc3ccc(Cl)cc3)[nH]n2c1=O,"inconclusive: 3.7 µM [inhibitor, single point]"
3,O=S(=O)(/C=C/c1ccccc1)N1CCNCC1,inactive
4,S=C(c1cccs1)N1CCCC1,"inconclusive: 10.4 µM [inhibitor, single point]"
5,NC(=O)CC(NC(=O)c1ccc(Br)cc1)c1ccc(N2CCCCCCC2)c([N+](=O)[O-])c1 (centres undefined),active: 2.94 µM
6,CC(C)(C)c1cc(C(=O)NCc2cc(F)cc3c2OCOC3)n(Cc2ccccc2)n1,"inconclusive: 18.5 µM [inhibitor, single point]"
7,O=C(COc1ccccc1C(=O)NCC1CCCO1)Nc1ccc(Br)cc1 (centres undefined),inactive
8,CC(=O)Nc1ccc(NC(=O)Cn2nc([N+](=O)[O-])c(Br)c2C)cc1,"inconclusive: 18.5 µM [inhibitor, partial curve, poor fit]"
9,CC1CCCCN1Cc1nc2c(c(=O)n(C)c(=O)n2C)n1Cc1c(F)cccc1Cl (centres undefined),"inconclusive: 2.33 µM [inhibitor, partial curve, poor fit]"
10,Cc1cc(-c2ccc(C)c(S(=O)(=O)NCCN3CCC(C)CC3)c2)on1,"inconclusive: 18.5 µM [inhibitor, single point]"
11,CCCCC(=O)Nc1ccc(C(=O)N2CCC(C(=O)OCC)CC2)cc1,"inconclusive: 18.5 µM [inhibitor, single point]"
12,COc1ccc(C2C(C(C)=O)=C(O)C(=O)N2Cc2cccnc2)cc1 (centres undefined),inactive
13,Cc1nc(-c2c(C(F)(F)F)noc2-c2ccc(O)cc2O)cs1,"inconclusive: 18.5 µM [inhibitor, single point]"
14,COc1ccc(Cc2nc3ccc(C(=O)NCc4cc(C)no4)cc3o2)cc1OC,"inconclusive: 11.7 µM [inhibitor, partial curve]"
15,CC(NC(=O)Nc1ccc(F)cc1)C(c1cccs1)N1CCCC1 (centres undefined),"inconclusive: 10.4 µM [inhibitor, single point]"
16,CN(C(=O)COC(=O)c1nn(C)c(=O)c2ccccc12)c1c(N)n(Cc2ccccc2)c(=O)[nH]c1=O,inactive
17,CCN(CC)C(=O)CN(c1cc2c(cc1OC)oc1ccccc12)S(=O)(=O)c1ccccc1,active: 10.4 µM
18,CCCN(C(=O)c1ccc(OCC(C)C)cc1)c1c(N)n(Cc2ccccc2)c(=O)[nH]c1=O,"inconclusive: 9.28 µM [inhibitor, single point]"
19,N#CC1=C(N)SC(N)=C(C#N)C1c1ccc(C(F)(F)F)cc1,active: 9.28 µM
20,Cc1ccccc1-c1nc(C(=O)NCC2CCCO2)cc2c1[nH]c1ccccc12 (centres undefined),active: 11.7 µM
21,O=C(COc1ccc2ccccc2c1Br)N1CCCCC1,inactive
22,O=C(COc1ccccc1-c1ccccc1)N/N=C/c1ccc2ccccc2c1,active: 2.33 µM
23,CCC(C)Oc1nc2c(c(=O)n(C)c(=O)n2C)n1C (centres undefined),inactive
24,CCOC(=O)c1c(C)[nH]c(C(=O)Cn2c(=O)c3c(ncn3CC)n(Cc3ccccc3)c2=O)c1C,active: 10.4 µM
25,Cc1cc(NC(=O)CCC(=O)N(CC(=O)NCC2CCCO2)c2ccc(C)c(C)c2)no1 (centres undefined),inactive

row,Compound,Potency
1,COC(=O)C1=C(c2ccc(OC(F)(F)F)cc2)C[C@@H]2CC[C@H]1N2C(=O)NCc1cccc2ccccc12,active: 1.85 µM
2,CCOc1ccccc1C(=O)NC1CCNCC1,active: 13.1 µM
3,CCN(CC)/C(=N\S(=O)(=O)c1ccc(F)cc1)c1ccccc1,inactive
4,CC(C)(C)NC(=S)NCc1ccco1,"inconclusive: 10.4 µM [inhibitor, partial curve, poor fit]"
5,CC(OC(=O)COc1ccc(C#N)cc1)C(=O)Nc1ccc(Cl)cn1 (centres undefined),inactive
6,CC(C(=O)Nc1cc([N+](=O)[O-])ccc1Cl)N1CCN(c2ccccc2O)CC1 (centres undefined),"inconclusive: 5.22 µM [inhibitor, partial curve, poor fit]"
7,N/C(=N\OC(=O)Cc1cccs1)c1ccc(Cl)cc1,inactive
8,CCC(C)c1ccc(NC(=O)C2CCN(c3ccc(C(F)(F)F)cn3)CC2)cc1 (centres undefined),"inconclusive: 2.08 µM [inhibitor, full curve]"
9,C1=CCN(Cc2ccccc2)C1,inactive
10,COc1cc(/C=C/C(=O)OCC(=O)NC(=O)NC23CC4CC(CC(C4)C2)C3)ccc1OCC#N,"inconclusive: 0.147 µM [inhibitor, full curve, poor fit]"
11,O=C(C1CCC1)N1CCN(c2ccnc3cc(Cl)ccc23)CC1,active: 10.4 µM
12,Cc1cc(C(=O)OCC(=O)N2CC(C)OC(C)C2)c2ccccc2n1 (centres undefined),inactive
13,Cn1c(N2CCCC2)nc2c1c(=O)[nH]c(=O)n2C,"inconclusive: 14.7 µM [inhibitor, partial curve]"
14,CN(CC(=O)Nc1ccccc1Cl)C(=O)c1cccc(-n2cccc2)c1,"inconclusive: 4.15 µM [inhibitor, full curve, poor fit]"
15,COc1cc(C2Nc3ccccc3NC3=C2C(=O)CC(c2ccc(OC)c(OC)c2)C3)ccc1O (centres undefined),"inconclusive: 11.7 µM [inhibitor, partial curve, poor fit]"
16,O=S(=O)(c1ccccc1)N1CN(Cc2ccc(F)cc2)c2nc3ccccc3nc21,"inconclusive: 18.5 µM [inhibitor, single point]"
17,CCC(C)CCN1C(N(C)C)=NC[C@@H]1CC(C)C (some centres undefined),"inconclusive: 18.5 µM [inhibitor, single point]"
18,CCOC(=O)CSc1nc(C(C)C)nc2ccccc12,active: 13.1 µM
19,COc1ccccc1-c1coc2c(CN(C)C)c(O)ccc2c1=O,"inconclusive: 0.117 µM [inhibitor, full curve]"
20,O=C(O)CCCCCn1c(O)c(C=C2N=c3ccccc3=N2)sc1=S,"inconclusive: 13.1 µM [inhibitor, single point]"
21,Cc1noc(C)c1COc1ccccc1C(=O)Nc1ccc(C(N)=O)cc1,"inconclusive: 11.7 µM [inhibitor, single point]"
22,COc1ccc(C2CN=NC23CCCc2ccccc2C3=O)cc1 (centres undefined),active: 2.62 µM
23,Cc1ccccc1NC(=S)NC1CCN(Cc2ccccc2)CC1,inactive
24,CCOC(=O)c1sc(NC(=O)CN2C(=O)NC3(CCCCCCC3)C2=O)c(C(=O)OCC)c1C,active: 9.28 µM
25,Nc1cc(N)cc(-c2nc3ccccc3[nH]2)c1,"inconclusive: 11.7 µM [inhibitor, single point]"

# Reprinted at random: 2 compounds from above, in no set order.
row,Compound,Potency
7,N/C(=N\OC(=O)Cc1cccs1)c1ccc(Cl)cc1,inactive
18,CCOC(=O)CSc1nc(C(C)C)nc2ccccc12,active: 13.1 µM

# Among those listed so far, three have a cyano group:
row,Compound,Potency
19,N#CC1=C(N)SC(N)=C(C#N)C1c1ccc(C(F)(F)F)cc1,active: 9.28 µM
5,CC(OC(=O)COc1ccc(C#N)cc1)C(=O)Nc1ccc(Cl)cn1 (centres undefined),inactive
10,COc1cc(/C=C/C(=O)OCC(=O)NC(=O)NC23CC4CC(CC(C4)C2)C3)ccc1OCC#N,"inconclusive: 0.147 µM [inhibitor, full curve, poor fit]"

# (next part)

row,Compound,Potency
1,O=C(COc1ccccc1Cl)N1CCN(c2ncccn2)CC1,"inconclusive: 0.165 µM [inhibitor, full curve, poor fit]"
2,CC(C)NC(=S)N(C)C1(c2ccccc2Cl)CCCCC1=O (centres undefined),inactive
3,Oc1ccc(/C=N/N(Cc2ccccc2)c2ccccc2)cc1,"inconclusive: 18.5 µM [inhibitor, single point]"
4,CCc1nnc(NC(=O)CSc2nnc(CNc3ccc(C)cc3)n2C)s1,inactive
5,CCCCNS(=O)(=O)c1ccc2nc(-c3cccnc3)cc(C(=O)NC(C)C)c2c1,"inconclusive: 8.28 µM [inhibitor, single point]"
6,COC(=O)C1=C(C)N(CCc2ccccc2)C(=O)/C1=C\c1ccco1,inactive
7,CC(C)C[C@H]1CN=C(N(C)C)N1CC1CCCC1,"inconclusive: 11.7 µM [inhibitor, partial curve, poor fit]"
8,COc1ccc(/C(C)=N/Nc2nc3ccccc3nc2C)cc1OC,"inconclusive: 16.5 µM [inhibitor, single point]"
9,CCOC(=O)N1CCN(S(=O)(=O)c2ccc(C)cc2)CC1,"inconclusive: 11.7 µM [inhibitor, partial curve]"
10,COc1ccccc1-c1cc(=O)c2c(O)ccc([N+](=O)[O-])c2o1,active: 10.4 µM
11,Nc1c(N=Nc2cccc(Cl)c2)c(=O)[nH]n1-c1ccccc1,inactive
12,CSc1c(CC(=O)NCCCO)n(Cc2ccccc2)c2ccccc12,active: 9.28 µM
13,CC(Sc1nc2ccccc2c(=O)n1Cc1ccco1)C(=O)c1ccccc1 (centres undefined),"inconclusive: 18.5 µM [inhibitor, single point]"
14,O=C(CNc1ccc(Br)cc1)Nc1ccc(S(=O)(=O)N2CCCC2)cc1,active: 11.7 µM
15,O=C(N/N=C1\CCCCc2ccccc21)c1ccccn1,inactive
16,O=C(O)c1ccc(/C=N/NC(=O)c2cc(-c3ccc4c5c(cccc35)CC4)n[nH]2)cc1,"inconclusive: 1.17 µM [inhibitor, single point]"
17,O=C(C[n+]1cccc(/C=N/O)c1)N(Cc1ccccc1)Cc1ccccc1,"inconclusive: 1.31 µM [inhibitor, partial curve, poor fit]"
18,COc1cccc(C(=O)Oc2ccc(N3C(=O)CCC3=O)c(C)c2)c1,inactive
19,Cc1ccc(CNC(=O)CS(=O)(=O)c2cn(CC(=O)N3CCOCC3)c3ccccc23)cc1,"inconclusive: 18.5 µM [inhibitor, single point]"
20,COc1ccc(-c2cc(C(=O)NCC3CCCO3)c3ccccc3n2)cc1 (centres undefined),inactive
21,CN1C(=O)C(CC(=O)Nc2ccc(F)cc2)N(NC(=O)c2cccc(F)c2)C1=S (centres undefined),"inconclusive: 18.5 µM [inhibitor, single point]"
22,COc1ccc(CNC(=O)N2CCc3ccccc3C2)cc1Cl,inactive
23,O=C(Nc1ccc(N2CCN(C(=O)c3ccccc3)CC2)cc1)c1cccs1,inactive
24,COC(=O)C1=CN(Cc2ccc(OC)c(OC)c2)C=C(C(=O)OC)C1c1cccc(F)c1,active: 10.4 µM
